No constants are given. Whether binding was seen depends on the method and setting. For some assays here: In cells and extracts the contact can be indirect. Some binding calls cover weakened binding; strength is not graded here. Where a sequence is shown, tags or fusion partners need not be part of it.

Results on 4 molecules are retold here after patent US20030162228A1.

For assay [1], the target named is T1, TAK1 expressed from yeast 2-hybrid expression vector pBTMHu11F (Homo sapiens (Human)) (UniProt O43318).
T1 sequence: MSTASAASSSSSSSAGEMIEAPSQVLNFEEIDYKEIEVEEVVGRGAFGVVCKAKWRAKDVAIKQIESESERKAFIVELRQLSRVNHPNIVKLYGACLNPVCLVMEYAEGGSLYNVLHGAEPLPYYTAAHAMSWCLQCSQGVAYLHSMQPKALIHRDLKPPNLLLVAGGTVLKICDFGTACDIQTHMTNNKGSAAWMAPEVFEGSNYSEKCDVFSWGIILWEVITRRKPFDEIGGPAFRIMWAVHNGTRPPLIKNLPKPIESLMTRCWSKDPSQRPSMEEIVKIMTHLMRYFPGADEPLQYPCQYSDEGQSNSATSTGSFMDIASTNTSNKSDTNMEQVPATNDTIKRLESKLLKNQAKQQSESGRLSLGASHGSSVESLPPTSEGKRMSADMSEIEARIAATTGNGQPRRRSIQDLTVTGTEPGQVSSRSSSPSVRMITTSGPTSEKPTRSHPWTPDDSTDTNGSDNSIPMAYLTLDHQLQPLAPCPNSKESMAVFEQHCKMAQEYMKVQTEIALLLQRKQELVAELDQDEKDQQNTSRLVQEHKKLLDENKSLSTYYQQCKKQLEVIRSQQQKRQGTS
Briefly: yeast 2-hybrid method.

Assay [2] deals with T2, recombinant human TAK1-6×His polypeptide (human) (UniProt O43318).
T2 sequence: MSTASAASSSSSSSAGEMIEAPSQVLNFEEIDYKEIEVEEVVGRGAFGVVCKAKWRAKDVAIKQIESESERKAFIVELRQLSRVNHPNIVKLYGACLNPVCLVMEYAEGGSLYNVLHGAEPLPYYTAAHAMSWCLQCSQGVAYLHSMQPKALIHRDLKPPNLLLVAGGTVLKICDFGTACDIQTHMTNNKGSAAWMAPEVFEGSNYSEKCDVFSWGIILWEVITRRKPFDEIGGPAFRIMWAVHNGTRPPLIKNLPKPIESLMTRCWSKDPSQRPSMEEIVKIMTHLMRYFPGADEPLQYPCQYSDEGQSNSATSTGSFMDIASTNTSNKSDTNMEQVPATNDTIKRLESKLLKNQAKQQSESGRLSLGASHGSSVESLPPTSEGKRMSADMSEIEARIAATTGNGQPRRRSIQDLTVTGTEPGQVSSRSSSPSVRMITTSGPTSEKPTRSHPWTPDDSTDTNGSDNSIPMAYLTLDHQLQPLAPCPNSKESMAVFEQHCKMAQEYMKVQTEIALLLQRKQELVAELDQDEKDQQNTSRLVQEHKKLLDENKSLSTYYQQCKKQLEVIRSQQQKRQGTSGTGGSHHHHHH
Briefly: competition in co-immunoprecipitation of FLAG-TAB1 with TAK1-6×His; peptide at two concentrations.

The target of assay [3] is T2, recombinant human TAK1-6×His polypeptide (human). Briefly: competition in co-immunoprecipitation with anti-TAK1 antibody; the blocked ligand is FLAG-TAB1; band densities of FLAG-TAB1 corrected for TAK1.

LPPGEDGRVEPYVDFAEFYRLWSVDHGEQSVVTAP (peptide, not shown: large carriers) [TAB1C35, fusion with the GAL4 transcription activated domain (pGAD-TAB1C35)]: the binding result in assay [1] is recorded as “binds”.
On the same count and under the same terms, to DGRVEPYVDFAEFYRLWSVDHGEQSVVTAP (peptide, not shown: large carriers) [TAB1C30, fusion with the GAL4 transcription activated domain (pGAD-TAB1C30)] belongs “binds”.
For the molecule CVEPYVDFAEFYRGRK [peptide TAB1C-1], the binding result in assay [2] and in assay [3] was “binds” throughout.
Consider PYVDFAEFYRLWSVDHGEQSVVTAP (peptide, not shown: large carriers) [TAB1C25, fusion with the GAL4 transcription activated domain (pGAD-TAB1C25)], for which the binding result in assay [1] is on record as “binds”.
